Experimental data: patent US6017715A (priority 1996, dated 2000)

Test: Calculation of Apparent Bioavailability Factor (ABF) in stormwater
Conditions: stormwater sample, Example 3(B)(2)

Row | SMILES | Apparent Bioavailability Factor (ABF), bioavailable portion of total
1 | CCOP(=S)(OCC)Oc1nc(Cl)c(Cl)cc1Cl [Chlorpyrifos, chlorpyrifos] | 0.16
2 | CCOP(=S)(OCC)Oc1cc(C)nc(C(C)C)n1 [Diazinon, diazinon] | 0.47
